pEC50: −log10 of the molar value. At least one peptide structure holds a part that was inferred or is arguable (an end, a ring closure or a residue). Where a SMILES comes first, the peptide text is derived from it. Bridges are numbered along the chain shown (N, C = ends). [ ]: non-standard residue; d: D form. Nle = CCCC[C@H](N)C(=O)O; Aib = CC(C)(N)C(=O)O
Columns and labels:
Format in all cases: cell-based
glucagon receptor = target: T1, glucagon receptor (Homo sapiens, UniProt P47871); assay: cAMP synthesis functional assay (firefly luciferase reporter in HEK293 cells), glucagon receptor
T1 construct: expressed in transfected cells; host or cells: HEK293

Chains of the proteins cited; added tags and fusions are not shown. Residues count along the entry.
UniProt P47871, 26-477: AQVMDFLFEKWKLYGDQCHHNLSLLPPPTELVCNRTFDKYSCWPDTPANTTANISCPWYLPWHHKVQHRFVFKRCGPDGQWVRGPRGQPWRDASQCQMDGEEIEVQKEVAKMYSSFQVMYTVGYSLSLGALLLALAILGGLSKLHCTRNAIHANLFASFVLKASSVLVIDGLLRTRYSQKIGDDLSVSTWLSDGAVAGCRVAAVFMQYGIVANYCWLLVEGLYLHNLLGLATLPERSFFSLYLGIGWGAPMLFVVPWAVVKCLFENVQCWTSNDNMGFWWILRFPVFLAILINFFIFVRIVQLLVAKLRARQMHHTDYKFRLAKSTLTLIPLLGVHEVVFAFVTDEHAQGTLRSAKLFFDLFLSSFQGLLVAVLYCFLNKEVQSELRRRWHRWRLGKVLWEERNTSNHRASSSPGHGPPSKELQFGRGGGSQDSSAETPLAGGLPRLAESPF
UniProt P43220, 24-463, species assumed: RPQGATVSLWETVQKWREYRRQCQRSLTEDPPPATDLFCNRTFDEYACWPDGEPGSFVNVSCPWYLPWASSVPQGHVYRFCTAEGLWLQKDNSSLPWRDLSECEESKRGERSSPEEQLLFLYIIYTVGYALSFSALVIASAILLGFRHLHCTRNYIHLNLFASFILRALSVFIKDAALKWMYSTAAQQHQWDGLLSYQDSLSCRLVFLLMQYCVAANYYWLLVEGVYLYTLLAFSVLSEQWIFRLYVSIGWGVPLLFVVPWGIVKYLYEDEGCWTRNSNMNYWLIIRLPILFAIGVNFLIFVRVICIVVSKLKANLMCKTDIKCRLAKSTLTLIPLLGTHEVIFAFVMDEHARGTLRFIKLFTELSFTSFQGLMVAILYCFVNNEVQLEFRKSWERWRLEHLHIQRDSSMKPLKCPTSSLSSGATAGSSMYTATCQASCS

GLP-1 receptor = target: T2, GLP-1 receptor (Homo sapiens, UniProt P43220); assay: cAMP synthesis functional assay (firefly luciferase reporter in HEK293 cells), GLP-1 receptor
T2 construct: expressed in transfected cells; host or cells: HEK293

GIP receptor = target: T3, GIP receptor (Homo sapiens, UniProt P48546); assay: cAMP synthesis functional assay (firefly luciferase reporter in HEK293 cells), GIP receptor
T3 construct: expressed in transfected cells; host or cells: HEK293
T3 sequence (P48546 22-466): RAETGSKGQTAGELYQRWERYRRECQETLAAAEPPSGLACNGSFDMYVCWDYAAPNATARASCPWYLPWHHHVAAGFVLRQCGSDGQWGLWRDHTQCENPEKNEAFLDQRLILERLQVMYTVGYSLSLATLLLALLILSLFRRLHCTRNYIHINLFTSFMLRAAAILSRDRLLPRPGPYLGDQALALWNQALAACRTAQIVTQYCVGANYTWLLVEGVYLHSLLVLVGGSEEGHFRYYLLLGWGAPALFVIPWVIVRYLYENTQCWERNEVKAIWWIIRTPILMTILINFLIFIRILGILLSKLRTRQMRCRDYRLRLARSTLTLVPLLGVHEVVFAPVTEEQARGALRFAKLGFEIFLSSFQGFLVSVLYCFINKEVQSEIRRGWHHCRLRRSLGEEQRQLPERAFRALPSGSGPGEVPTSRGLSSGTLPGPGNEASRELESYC

[1] = Table 1, relative to the native hormone of the indicated receptor
[2] = Table 4, relative to the native hormone

Compound | Glucagon Receptor relative activity (glucagon receptor; [1]) [%] | GLP-1 Receptor relative activity (GLP-1 receptor; [1]) [%] | GIP Receptor relative activity (GIP receptor; [1]) [%] | other results
CCCC[C@H](NC(=O)[C@H](CC(C)C)NC(=O)[C@H](Cc1c[nH]c2ccccc12)NC(=O)[C@H](CC(N)=O)NC(=O)[C@@H](NC(=O)[C@H](Cc1ccccc1)NC(=O)[C@H](CCC(=O)O)NC(=O)[C@@H]1CCCCNC(=O)CC[C@H](NC(=O)[C@H](CC(=O)O)NC(=O)[C@H](CC(C)C)NC(=O)[C@H](Cc2ccc(O)cc2)NC(=O)[C@@H](NC(=O)[C@H](CO)NC(=O)[C@H](Cc2ccc(O)cc2)NC(=O)[C@H](CC(=O)O)NC(=O)[C@H](CO)NC(=O)[C@@H](NC(=O)[C@H](Cc2ccccc2)NC(=O)[C@@H](NC(=O)CNC(=O)[C@H](CCC(N)=O)NC(=O)C(C)(C)NC(=O)[C@@H](N)Cc2ccc(O)cc2)[C@@H](C)O)[C@@H](C)O)[C@@H](C)CC)C(=O)N[C@@H](CCC(N)=O)C(=O)N[C@@H](C)C(=O)N[C@@H](C)C(=O)N1)C(C)C)C(=O)N[C@@H](C)C(=O)NCC(=O)NCC(=O)N1CCC[C@H]1C(=O)N[C@@H](CO)C(=O)N[C@@H](CO)C(=O)NCC(=O)N[C@@H](C)C(=O)N1CCC[C@H]1C(=O)N1CCC[C@H]1C(=O)N1CCC[C@H]1C(=O)N[C@@H](CO)C(=O)N[C@@H](CS)C(N)=O [mt-200] (H-Y[Aib]QGTFTSDYSIYLDEQAAKEFVNWL[Nle]AGGPSSGAPPPSC-NH2; lactam 16-20; N-terminus assumed) | 11.96 | 138.10 | 4.60 | –
CC[C@H](C)[C@H](NC(=O)[C@H](CO)NC(=O)[C@H](Cc1ccc(O)cc1)NC(=O)[C@H](CC(=O)O)NC(=O)[C@H](CO)NC(=O)[C@@H](NC(=O)[C@H](Cc1ccccc1)NC(=O)[C@@H](NC(=O)CNC(=O)[C@H](CCC(N)=O)NC(=O)C(C)(C)NC(=O)[C@@H](N)Cc1ccc(O)cc1)[C@@H](C)O)[C@@H](C)O)C(=O)N[C@@H](Cc1ccc(O)cc1)C(=O)N[C@@H](CC(C)C)C(=O)N[C@@H](CC(=O)O)C(=O)N[C@@H](CCC(=O)O)C(=O)N[C@@H](CCC(N)=O)C(=O)N[C@@H](C)C(=O)N[C@@H](C)C(=O)N[C@@H](CCCCN)C(=O)N[C@@H](CCC(=O)O)C(=O)N[C@@H](Cc1ccccc1)C(=O)N[C@H](C(=O)N[C@@H](CC(N)=O)C(=O)N[C@@H](Cc1c[nH]c2ccccc12)C(=O)N[C@@H](CC(C)C)C(=O)N[C@@H](CC(C)C)C(=O)N[C@@H](C)C(=O)NCC(=O)NCC(=O)N1CCC[C@H]1C(=O)N[C@@H](CO)C(=O)N[C@@H](CO)C(=O)NCC(=O)N[C@@H](C)C(=O)N1CCC[C@H]1C(=O)N1CCC[C@H]1C(=O)N1CCC[C@H]1C(=O)N[C@@H](CO)C(N)=O)C(C)C [mt-191] (H-Y[Aib]QGTFTSDYSIYLDEQAAKEFVNWLLAGGPSSGAPPPS-NH2; N-terminus assumed) | 4.32 | 209.09 | 16.93 | pEC50 (GLP-1 receptor; read-out: GLP-1 Receptor EC50, Table 1): 10.96
CCCCCCCCCCCCCC(=O)NCCCC[C@H](NC(=O)[C@H](CO)NC(=O)[C@@H]1CCCN1C(=O)[C@@H]1CCCN1C(=O)[C@@H]1CCCN1C(=O)[C@H](C)NC(=O)CNC(=O)[C@H](CO)NC(=O)[C@H](CO)NC(=O)[C@@H]1CCCN1C(=O)CNC(=O)CNC(=O)[C@H](C)NC(=O)[C@H](CC(C)C)NC(=O)[C@H](CC(C)C)NC(=O)[C@H](Cc1c[nH]c2ccccc12)NC(=O)[C@H](CC(N)=O)NC(=O)[C@@H](NC(=O)[C@H](Cc1ccccc1)NC(=O)[C@H](CCC(=O)O)NC(=O)C(C)(C)NC(=O)[C@H](C)NC(=O)[C@H](C)NC(=O)[C@H](CCC(N)=O)NC(=O)[C@H](CCCCN)NC(=O)[C@H](CC(=O)O)NC(=O)[C@H](CC(C)C)NC(=O)[C@H](Cc1ccc(O)cc1)NC(=O)[C@@H](NC(=O)[C@H](CO)NC(=O)[C@H](Cc1ccc(O)cc1)NC(=O)[C@H](CC(=O)O)NC(=O)[C@H](CO)NC(=O)[C@@H](NC(=O)[C@H](Cc1ccccc1)NC(=O)[C@@H](NC(=O)CNC(=O)[C@H](CCC(=O)O)NC(=O)C(C)(C)NC(=O)[C@@H](N)Cc1ccc(O)cc1)[C@@H](C)O)[C@@H](C)O)[C@@H](C)CC)C(C)C)C(=O)N[C@@H](CSSC[C@H](NC(=O)[C@H](CCCCNC(=O)CCCCCCCCCCCCC)NC(=O)[C@H](CO)NC(=O)[C@@H]1CCCN1C(=O)[C@@H]1CCCN1C(=O)[C@@H]1CCCN1C(=O)[C@H](C)NC(=O)CNC(=O)[C@H](CO)NC(=O)[C@H](CO)NC(=O)[C@@H]1CCCN1C(=O)CNC(=O)CNC(=O)[C@H](C)NC(=O)[C@H](CC(C)C)NC(=O)[C@H](CC(C)C)NC(=O)[C@H](Cc1c[nH]c2ccccc12)NC(=O)[C@H](CC(N)=O)NC(=O)[C@@H](NC(=O)[C@H](Cc1ccccc1)NC(=O)[C@H](CCC(=O)O)NC(=O)C(C)(C)NC(=O)[C@H](C)NC(=O)[C@H](C)NC(=O)[C@H](CCC(N)=O)NC(=O)[C@H](CCCCN)NC(=O)[C@H](CC(=O)O)NC(=O)[C@H](CC(C)C)NC(=O)[C@H](Cc1ccc(O)cc1)NC(=O)[C@@H](NC(=O)[C@H](CO)NC(=O)[C@H](Cc1ccc(O)cc1)NC(=O)[C@H](CC(=O)O)NC(=O)[C@H](CO)NC(=O)[C@@H](NC(=O)[C@H](Cc1ccccc1)NC(=O)[C@@H](NC(=O)CNC(=O)[C@H](CCC(=O)O)NC(=O)C(C)(C)NC(=O)[C@@H](N)Cc1ccc(O)cc1)[C@@H](C)O)[C@@H](C)O)[C@@H](C)CC)C(C)C)C(N)=O)C(N)=O [mt-354] | – | – | – | Glucagon Receptor relative activity (glucagon receptor; [2]): 1.45%; pEC50 (glucagon receptor; read-out: Glucagon Receptor EC50, Table 4): 8.58; GLP-1 Receptor relative activity (GLP-1 receptor; [2]): 136.99%; GIP Receptor relative activity (GIP receptor; [2]): 91.65%
CC(=O)NCC[C@H](NC(=O)[C@H](CO)NC(=O)[C@@H](N)Cc1c[nH]cn1)C(=O)NCC(=O)N[C@H](C(=O)N[C@@H](Cc1ccccc1)C(=O)N[C@H](C(=O)N[C@@H](CO)C(=O)N[C@@H](CC(=O)O)C(=O)N[C@@H](Cc1ccc(O)cc1)C(=O)N[C@@H](CO)C(=O)N[C@@H](CCCCN)C(=O)N[C@@H](Cc1ccc(O)cc1)C(=O)N[C@@H](CC(C)C)C(=O)N[C@@H](CC(=O)O)C(=O)NC(C)(C)C(=O)N[C@@H](CCCNC(=N)N)C(=O)N[C@@H](CCCNC(=N)N)C(=O)N[C@@H](C)C(=O)N[C@@H](CO)C(=O)N[C@@H](CC(=O)O)C(=O)N[C@@H](Cc1ccccc1)C(=O)N[C@H](C(=O)N[C@@H](CO)C(=O)N[C@@H](Cc1c[nH]c2ccccc12)C(=O)N[C@@H](CC(C)C)C(=O)N[C@@H](CC(C)C)C(=O)N[C@@H](CC(=O)O)C(=O)N[C@@H](CCC(=O)O)C(=O)O)C(C)C)[C@@H](C)O)[C@@H](C)O [SEQ ID NO: 255] | – | – | – | % activity* (glucagon receptor; Table 7, glucagon receptor): 54%
